The results in this text go back to PMC4016276.

The assay addresses Wag31 (Mycobacterium tuberculosis H37Rv) (UniProt P9WMU1). In words: co-IP; in vitro Co-IP: 35S-methionine-labelled, in vitro translated HA-tagged h-protein and c-Myc-tagged c-protein mixed 1:1 with goat anti-mouse IgG magnetic beads (Dynabeads M-450) coated with monoclonal anti-HA antibodies; SDS-PAGE (4-20%) and phosphorimaging.

Results are given in words; binding and its absence hold for the method and conditions named. Binding seen in cells or lysates may run through a third protein. Some entries that bind do so weakly or less than the wild type.

B1: Wag31 (protein, UniProt P9WMU1 1-260)
chain: MPLTPADVHNVAFSKPPIGKRGYNEDEVDAFLDLVENELTRLIEENSDLRQRINELDQELAAGGGAGVTPQATQAIPAYEPEPGKPAPAAVSAGMNEEQALKAARVLSLAQDTADRLTNTAKAESDKMLADARANAEQILGEARHTADATVAEARQRADAMLADAQSRSEAQLRQAQEKADALQADAERKHSEIMGTINQQRAVLEGRLEQLRTFEREYRTRLKTYLESQLEELGQRGSAAPVDSNADAGGFDQFNRGKN
modifications: L-[35S]-methionine-labelled
Take B1: the binding result is listed as “binds”.
